The values below come from PMC11237490.

By UniProt entry, the sequences of proteins in these tests, tags left out. Where a name states a change or a piece, a line headed by the entry shows the natural chain unless it says otherwise.
UniProt Q2G2N2: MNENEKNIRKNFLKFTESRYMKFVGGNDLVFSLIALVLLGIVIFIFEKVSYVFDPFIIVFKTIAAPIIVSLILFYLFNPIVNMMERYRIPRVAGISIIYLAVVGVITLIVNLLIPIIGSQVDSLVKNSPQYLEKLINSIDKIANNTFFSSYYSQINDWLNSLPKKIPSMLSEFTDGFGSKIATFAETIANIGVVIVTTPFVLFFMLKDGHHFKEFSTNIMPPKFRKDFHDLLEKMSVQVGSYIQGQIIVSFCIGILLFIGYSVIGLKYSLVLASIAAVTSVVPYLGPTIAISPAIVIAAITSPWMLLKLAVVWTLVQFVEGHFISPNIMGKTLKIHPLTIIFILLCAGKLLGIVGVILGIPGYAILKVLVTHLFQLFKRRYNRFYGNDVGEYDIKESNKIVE

Results are given in words; binding and its absence hold for the method and conditions named. Binding seen in cells or lysates may run through a third protein. For some of these results: Binding calls can cover weak binding; strength is not graded here. Where a sequence is shown, tags or fusion partners need not be part of it.

In assay [1] the target is T1, UgtP fused C-terminally to LgBit (S. aureus NCTC8325-4) (UniProt Q2FZP7).
T1 sequence: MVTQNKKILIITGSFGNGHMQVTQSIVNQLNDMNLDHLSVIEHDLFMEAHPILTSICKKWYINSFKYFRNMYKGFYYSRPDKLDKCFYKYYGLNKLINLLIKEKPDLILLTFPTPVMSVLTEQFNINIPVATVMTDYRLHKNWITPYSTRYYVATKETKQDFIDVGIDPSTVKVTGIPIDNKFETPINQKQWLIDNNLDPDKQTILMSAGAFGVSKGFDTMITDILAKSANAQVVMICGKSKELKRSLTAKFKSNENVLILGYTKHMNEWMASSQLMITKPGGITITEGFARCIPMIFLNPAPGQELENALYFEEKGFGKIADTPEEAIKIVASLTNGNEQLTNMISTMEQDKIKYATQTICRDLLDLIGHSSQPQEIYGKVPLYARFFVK
Briefly: split reporter; split luciferase in live S. aureus; CozE fused to SmBit and UgtP or LtaA fused to LgBit on one plasmid; 90 minutes at 37°C with 100 ng/mL anhydrotetracycline; Nano-Glo reagent, luminescence (460 nm) normalized to cell density.

The target in assay [2] is T2, LtaA fused C-terminally to LgBit (S. aureus NCTC8325-4) (UniProt Q2FZP8).
T2 sequence: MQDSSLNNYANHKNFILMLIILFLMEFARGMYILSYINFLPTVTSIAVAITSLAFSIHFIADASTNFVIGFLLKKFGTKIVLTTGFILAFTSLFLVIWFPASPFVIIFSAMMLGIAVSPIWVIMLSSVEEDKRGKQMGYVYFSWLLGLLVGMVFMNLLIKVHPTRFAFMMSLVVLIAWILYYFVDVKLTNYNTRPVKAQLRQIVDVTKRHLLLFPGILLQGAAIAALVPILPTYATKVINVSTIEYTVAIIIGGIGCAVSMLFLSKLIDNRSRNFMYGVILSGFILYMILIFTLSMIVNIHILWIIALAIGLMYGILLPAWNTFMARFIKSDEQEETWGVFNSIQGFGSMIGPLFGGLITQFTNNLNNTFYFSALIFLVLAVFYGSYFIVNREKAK
The assay is described as above.

Regarding “CozEa fused C-terminally to SmBit (S. aureus NCTC8325-4)”, the binding entry was “no binding” in assay [1] and “binds” in assay [2].

Turning to “CozEb fused C-terminally to SmBit (from UniProt Q2G2N2)”, the binding result is “no binding” in assay [1] and “binds” in assay [2].
